Data reported in the supplement of paper PMC12067093, “Discovery and optimisation of a covalent ligand for TRIM25 and its application to targeted protein ubiquitination” (Chemical Science, 2025).
The list shows a part of the results.

Compound: Cc1cc(ccc1-c1ccccc1)C(=O)N1CCCN(CC1)C(=O)CCl [compound 10]
Assay: probe-labelled cysteine peptide fold change vs DMSO (competition) (log2 fold change); higher = less target engagement (more negative = stronger competition)
Details: THP-1, incubation time: 4 h
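Note: competitive profiling in live THP-1 cells: cysteine peptides tagged with an iodoacetamide desthiobiotin (IA-DTB) probe, intensity after compound treatment relative to DMSO-treated cells.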

Q: “SHC1_P29353_574_FESVSHLISYHMDNHLPIISAGSELCLQQPVER (UniProt P29353)” was tested. Which “probe-labelled cysteine peptide fold change” value (10 µM) did it give?
A: 0.226

Q: And the “probe-labelled cysteine peptide fold change” value (50 µM)?
A: 0.476

Q: What does the source list for “SIK3_Q9Y2K2_121_MLCHPHIIR (UniProt Q9Y2K2)”?
A: probe-labelled cysteine peptide fold change (10 µM): -0.0228; probe-labelled cysteine peptide fold change (50 µM): -0.138

Q: What does the source list for “SF3A3_Q12874_408+411_LHGLNINYNCEICGNYTYR (UniProt Q12874)”?
A: probe-labelled cysteine peptide fold change (10 µM): 0.113; probe-labelled cysteine peptide fold change (50 µM): -0.0346

Q: “SLC30A1_Q9Y6M5_433_SSVVPCELACR (UniProt Q9Y6M5)” was tested. Which “probe-labelled cysteine peptide fold change” value (10 µM) did it give?
A: -0.074

Q: And the “probe-labelled cysteine peptide fold change” value (50 µM)?
A: -0.832

Q: Which “probe-labelled cysteine peptide fold change” value (10 µM) does the source give for “SF3B1_O75533_1035_VQENCIDLVGR (UniProt O75533)” here?
A: -0.0527

Q: And the “probe-labelled cysteine peptide fold change” value (50 µM)?
A: -0.166

Q: What does the source list for “SIN3B_O75182_1138_TLCETVHVHGLPVTR (UniProt O75182)”?
A: probe-labelled cysteine peptide fold change (10 µM): -0.165; probe-labelled cysteine peptide fold change (50 µM): 0.0678

Q: Which results are given for “SIKE1_Q9BRV8_146_ICEMGEVMR (UniProt Q9BRV8)”?
A: probe-labelled cysteine peptide fold change (10 µM): 0.0507; probe-labelled cysteine peptide fold change (50 µM): -0.0257

Q: Which results are given for “SGTA_O43765_153_AICIDPAYSK (UniProt O43765)”?
A: probe-labelled cysteine peptide fold change (10 µM): 0.119; probe-labelled cysteine peptide fold change (50 µM): -0.316

Q: How did the “probe-labelled cysteine peptide fold change” value (10 µM) turn out when “SH3KBP1_Q96B97_301_DCIDVGWWEGELNGRR (UniProt Q96B97)” was run?
A: 0.0534

Q: What about the “probe-labelled cysteine peptide fold change” value (50 µM) of the same target?
A: -0.22

Q: How did the “probe-labelled cysteine peptide fold change” value (10 µM) turn out when “SIRT1_Q96EB6_371_IIQCHGSFATASCLICK (UniProt Q96EB6)” was run?
A: 0.14

Q: And the “probe-labelled cysteine peptide fold change” value (50 µM)?
A: -0.175

Q: With “SLC25A12_O75746_130_EIFGQTIIHHHIPFNWDCEFIR (UniProt O75746)” as the target, how does the “probe-labelled cysteine peptide fold change” value (10 µM) read?
A: 0.287

Q: And the “probe-labelled cysteine peptide fold change” value (50 µM)?
A: 0.374

Q: For “SH3KBP1_Q96B97_103_CQVAFSYLPQNDDELELK (UniProt Q96B97)”, which “probe-labelled cysteine peptide fold change” value (10 µM) is on record?
A: 0.135

Q: What about the “probe-labelled cysteine peptide fold change” value (50 µM) of the same target?
A: -0.0565

Q: What does the source list for “SH3KBP1_Q96B97_301_DCIDVGWWEGELNGR (UniProt Q96B97)”?
A: probe-labelled cysteine peptide fold change (10 µM): -0.0215; probe-labelled cysteine peptide fold change (50 µM): 0.0215

Q: How did the “probe-labelled cysteine peptide fold change” value (10 µM) turn out when “SLC27A2_O14975_414_DEPVRDENGYCVR (UniProt O14975)” was run?
A: 0.0722

Q: And the “probe-labelled cysteine peptide fold change” value (50 µM)?
A: 0.42
